Test results taken from US20230070261A1 (UCB, published 2023).
These are yes or no findings as the source states them, for the method shown. Some binding calls cover weakened binding; strength is not graded here.

Protein sequences, listed by entry. Tags and fused reporters are not part of them. Residues count along the entry.
UniProt Q9Y337, residues 67-293: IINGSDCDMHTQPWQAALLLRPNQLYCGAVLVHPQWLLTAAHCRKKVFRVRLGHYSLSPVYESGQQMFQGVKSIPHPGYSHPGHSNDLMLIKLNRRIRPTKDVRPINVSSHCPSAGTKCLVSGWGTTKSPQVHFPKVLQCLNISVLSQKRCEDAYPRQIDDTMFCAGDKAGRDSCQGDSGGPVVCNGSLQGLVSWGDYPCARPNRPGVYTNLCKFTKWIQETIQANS

Experiments:
[1] = target: Human KLK5 (from N-terminal TEV-cleavable 8xHis-tag construct, tag removed) (human) (UniProt Q9Y337); experiment: SDS-PAGE of the SEC peak fractions of KLK5+LEKTI D8+rabbit Fab 10273 (co-elution)
[2] = target: Human KLK5 (from N-terminal TEV-cleavable 8xHis-tag construct, tag removed) (human) (UniProt Q9Y337); experiment: size exclusion chromatography on Superdex 200; KLK5 first bound to LEKTI D8, then Fab added, 25 uM each (ternary complex) [cont.) B]
[3] = target: Human KLK5 (from N-terminal TEV-cleavable 8xHis-tag construct, tag removed) (human) (UniProt Q9Y337); experiment: size exclusion chromatography on Superdex 200; KLK5 first bound to LEKTI D5, then Fab added, 25 uM each (ternary complex)
[4] = target: Human KLK5 (from N-terminal TEV-cleavable 8xHis-tag construct, tag removed) (human) (UniProt Q9Y337); experiment: SDS-PAGE of the SEC peak fractions of KLK5+LEKTI D5+rabbit Fab 10273 (co-elution)
[5] = target: Human KLK5 (from N-terminal TEV-cleavable 8xHis-tag construct, tag removed) (human) (UniProt Q9Y337); experiment: size exclusion chromatography and SDS-PAGE; Fab added to preformed KLK5-LEKTI D5 or KLK5-LEKTI D8 complex

Measured: binding

B1: Rabbit Fab antibody 10273 (Fab, V domains shown)
VH: QSVEESGGRLVTPGTPLTLTCTVSGFSLSSYGMSWVRQAPGKGLEWIGIISSSGSTYYASWAKGRFTISKTSTTVDLKIASPTTEDTATYFCARDHIYRYDDYGDYPTYYGMDPWGPGTLVTVSS
VL: AVVLTQTPSPMSAAVGGTVTISCQSSQSVYNNNDLAWYQQKPGQPPKLLIYRASTLASGVPSRFSGSGSGTQFTLTISGVQCDDAATYYCLGGYDDDVDTYTFGGGTEVVVKR
binds: all assays above
